# Data reported in the supplement of paper PMC9135407.
# Values joined by “and” are separate entries in the source; they are usually repeats but may differ in a detail not shown here. Equal values may be shown once. Where a name gives a salt, the structure may show the parent alone. ± gives the standard deviation of the averaged measurements. This is one part of the list. Part of the spread comes from offsets between plates or batches.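 Primary human stellate myofibroblasts activated in culture; inactivation shown by regained lipid droplets. Readout: fraction of Hoechst-counted cells exceeding a per-plate Bodipy threshold, duplicate wells, each plate with DMSO negative and nortriptyline positive controls. Hits: control-normalized score beyond the plate's top-tenth-percentile nortriptyline wells, or among its three best wells. Final well concentrations unstated.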
# Test system: primary human hepatic stellate cells (donor 1)
# Assay: percent Bodipy-positive cells; higher = more lipid droplet accumulation
# Settings: 48 h
# [1] = library stock concentration: 3.33 mM
# [2] = library stock concentration: 10 mM
# [3] = library stock concentration: 80 uM
# [4] = library stock concentration: 400 uM
# [5] = library stock concentration: 2 mM
# [6] = library stock concentration: 1 mM
smiles,measurement,setting,value
C=CC[C@@H]1/C=C(\C)C[C@H](C)C[C@H](OC)[C@H]2O[C@@](O)(C(=O)C(=O)N3CCCC[C@H]3C(=O)O[C@H](/C(C)=C/[C@@H]3CC[C@@H](O)[C@H](OC)C3)[C@H](C)[C@@H](O)CC1=O)[C@H](C)C[C@@H]2OC [Tacrolimus (FK506)],percent Bodipy-positive cells,[1],4.76 ± 2.3%
same,percent Bodipy-positive cells,[2],6.72 ± 0.26%
CN(C)Cc1cccc(N=C(c2ccccc2)c2c(O)[nH]c3cc(C(N)=O)ccc23)c1,percent Bodipy-positive cells,[3],7.16 ± 3.1%
same,percent Bodipy-positive cells,[4],11.5 ± 2.7%
same,percent Bodipy-positive cells,[5],9.58 ± 2.8%
same,percent Bodipy-positive cells,[1],25 ± 14%
same,percent Bodipy-positive cells,[2],76.7% and 84.2%
O=C(N/N=C/c1ccc(O)c(O)c1)c1cc2ccccc2cc1O [Dynasore],percent Bodipy-positive cells,[1],35.2 ± 12%
same,percent Bodipy-positive cells,[2],23.1 ± 1.3%
COC(=O)C1=C(C)NC(C)=C(C(=O)OC)C1c1cccc(NC(=O)NCCCN2CCC(c3cccc(OC)c3)CC2)c1,percent Bodipy-positive cells,[2],99.76 ± 0.34%
CSC(N)=NCCC[C@@H](N)C(=O)O [S-methyl-L-Thiocitrulline (hydrochloride)],percent Bodipy-positive cells,[6],9.42 ± 2.7%
O=C(O)CCNc1cc(N2CCc3ccccc3CC2)nc(-c2ccccn2)n1,percent Bodipy-positive cells,[3],34.1 ± 7.8%
same,percent Bodipy-positive cells,[4],48.5 ± 2.1%
same,percent Bodipy-positive cells,[5],43.1 ± 9.7%
same,percent Bodipy-positive cells,[2],30 ± 7%
Cc1c(C(=O)N(C)C2CCCCC2)sc2nc3ccc(N)cc3n12,percent Bodipy-positive cells,[2],5.87 ± 1.2%
COc1ccc(COc2ccc(Cc3cnc(N)nc3N)cc2OC)cc1,percent Bodipy-positive cells,[3],7.57 ± 1.7%
same,percent Bodipy-positive cells,[4],10.7 ± 7.1%
same,percent Bodipy-positive cells,[5],23.2 ± 4.5%
same,percent Bodipy-positive cells,[1],54.7 ± 2.6%
COc1ccc(COc2ccc(Cc3cnc(N)nc3N)cc2OC)cc1 [cFMS Receptor Tyrosine Kinase Inhibitor],percent Bodipy-positive cells,[1],11.6 ± 2%
Cc1cc([N+](=O)[O-])ccc1NS(=O)(=O)c1cc(Cl)ccc1Cl,percent Bodipy-positive cells,[1],39.5 ± 13%
same,percent Bodipy-positive cells,[2],52.1 ± 9.4%
COc1ccc(C(=O)NCc2cccnc2)cc1C(=O)NCc1cccnc1 [Picotamide monohydrate],percent Bodipy-positive cells,,29.3 ± 2.3%
COc1ccc(C(=O)NCc2cccnc2)cc1C(=O)NCc1cccnc1 [Picotamide],percent Bodipy-positive cells,library stock concentration: 5.3 mM,10 ± 1.4%
same,percent Bodipy-positive cells,[2],15.8 ± 1.8%
CC(C)c1cccc(C(C)C)c1N1C(=O)c2ccc(O)cc2C1=O,percent Bodipy-positive cells,[2],61.6 ± 7.8%
COCc1c(C(C)C)nc(C(C)C)c(/C=C/[C@@H](O)C[C@@H](O)CC(=O)O)c1-c1ccc(F)cc1 [Cerivastatin],percent Bodipy-positive cells,library stock concentration: 4.4 mM,36.5 ± 13%
COCc1c(C(C)C)nc(C(C)C)c(/C=C/[C@@H](O)C[C@@H](O)CC(=O)O)c1-c1ccc(F)cc1,percent Bodipy-positive cells,[2],37.7 ± 2.2%
O=C(c1ccc(F)cc1)N1CCCC(c2nc(-c3ccc(F)cc3)no2)C1 (stereo not drawn),percent Bodipy-positive cells,[1],8.25 ± 2.7%
same,percent Bodipy-positive cells,[2],12.2 ± 0.67%
CC(=O)O[C@]1(C(C)=O)CCC2C3C=C(Cl)C4=CC(=O)CC[C@]4(C)C3CC[C@@]21C (stereo partly drawn) [Chlormadinone acetate],percent Bodipy-positive cells,[2],88.2 ± 3.6%
O=C(CNC(=O)c1ccc(Cl)cc1)NO [Benurestat],percent Bodipy-positive cells,library stock concentration: 8.7 mM,16.5 ± 6.8%
CN1CCCC(n2nc(Cc3ccc(Cl)cc3)c3ccccc3c2=O)CC1 (stereo not drawn),percent Bodipy-positive cells,[2],83.6 ± 1.9%
CN1CCCC(n2nc(Cc3ccc(Cl)cc3)c3ccccc3c2=O)CC1 (stereo not drawn) [Azelastine HCl],percent Bodipy-positive cells,[1],60.4 ± 13%
O=c1oc(-c2ccc(C(F)(F)F)cc2)nn1Cc1cc(Cl)ccc1O,percent Bodipy-positive cells,[2],47.4 ± 14%
CC1=CC(=O)NS(=O)(=O)O1 [Acesulfame Potassium],percent Bodipy-positive cells,[1],15.1 ± 3.1%
same,percent Bodipy-positive cells,[2],17.9 ± 1.5%
CC1=CC(=O)NS(=O)(=O)O1,percent Bodipy-positive cells,[2],37 ± 0.46%
CCCC(=O)Nc1ncnc2c1ncn2[C@@H]1O[C@@H]2COP(=O)(O)O[C@H]2[C@H]1OC(=O)CCC [Bucladesine sodium salt],percent Bodipy-positive cells,,10.1 ± 3.4%
CCCC(=O)Nc1ncnc2c1ncn2[C@@H]1O[C@@H]2COP(=O)(O)O[C@H]2[C@H]1OC(=O)CCC [Bucladesine],percent Bodipy-positive cells,[2],25.4 ± 7.2%
"CCCC(=O)Nc1ncnc2c1ncn2[C@@H]1O[C@@H]2COP(=O)(O)O[C@H]2[C@H]1OC(=O)CCC [Dibutyryl-cAMP, sodium salt]",percent Bodipy-positive cells,[2],8.09 ± 3.1%
CN(C)CCC[C@@]1(c2ccc(F)cc2)OCc2cc(C#N)ccc21,percent Bodipy-positive cells,[2],68.7 ± 12%
CN(C)CCC[C@@]1(c2ccc(F)cc2)OCc2cc(C#N)ccc21 [Escitalopram],percent Bodipy-positive cells,library stock concentration: 6.2 mM,31.7 ± 8.6%
CN(C)CCC[C@@]1(c2ccc(F)cc2)OCc2cc(C#N)ccc21 [Escitalopram Oxalate],percent Bodipy-positive cells,[1],26.1 ± 4.8%
same,percent Bodipy-positive cells,[2],79.3 ± 9.5%
CCCCC/C=C\C/C=C\C/C=C\C/C=C\CCCC(=O)OCC [Arachidonic Acid ethyl ester],percent Bodipy-positive cells,[6],6.79 ± 1.8%
CC(=O)N[C@@H](CCC(=O)O)C(=O)O [Acetylglutamic acid],percent Bodipy-positive cells,[2],20.8 ± 8%
O=S(=O)(c1ccccc1)c1cnc2c(N3CCNCC3)cccc2c1,percent Bodipy-positive cells,[1],40 ± 10%
COc1ccc(-n2c(C)c([N+](=O)[O-])c3ccc(O)cc32)cc1,percent Bodipy-positive cells,[1],54 ± 4.7%
same,percent Bodipy-positive cells,[2],76.54 ± 0.58%
CC(C)C[C@H](NC(=O)[C@H](CCc1ccccc1)NC(=O)CN1CCOCC1)C(=O)N[C@@H](Cc1ccccc1)C(=O)N[C@@H](CC(C)C)C(=O)[C@@]1(C)CO1 [Carfilzomib (PR-171)],percent Bodipy-positive cells,[1],76.6 ± 10%
same,percent Bodipy-positive cells,[2],92.7 ± 6.6%
Cc1c(C(=O)NC2CCCCC2)sc2nc3ccc(N)cc3n12,percent Bodipy-positive cells,[2],14.8 ± 6.2%
COc1ccc(C2(CNC(=O)c3ccc(NC(=O)c4ccco4)cc3)CCOCC2)cc1,percent Bodipy-positive cells,[3],42.1 ± 6.3%
same,percent Bodipy-positive cells,[4],36.2 ± 1.6%
same,percent Bodipy-positive cells,[5],39.3 ± 0.88%
same,percent Bodipy-positive cells,[2],48.2 ± 6%

# Reformatted bar-delimited: part of the list above.
smiles | measurement | setting | value
CCCCC/C=C\C/C=C\C/C=C\C/C=C\CCCC(=O)OCC [Arachidonic Acid ethyl ester] | percent Bodipy-positive cells | [6] | 6.79 ± 1.8%
CC(=O)N[C@@H](CCC(=O)O)C(=O)O [Acetylglutamic acid] | percent Bodipy-positive cells | [2] | 20.8 ± 8%
